Data reported in PubChem BioAssay AID540256 (National Center for Advancing Translational Sciences (NCATS), 2011).
About 3,700 (1.2%) of roughly 300,000 compounds were called active. The shares of active, inactive and inconclusive entries below differ from those in the screen. Calls come from the whole dose curve; tested in HEK293 cells. Where the call is inconclusive, the potency comes from a doubtful curve fit.

Experiment: qHTS for Inhibitors of binding or entry into cells for Lassa Virus; note: nearly all actives have a fitted effect of over 50% in size
Conditions: Lassa virus pseudotype entry inhibition, cell reporter; series mostly up to 37.9 µM
Potency is the fitted concentration of half-maximal effect.

| Structure (SMILES) | Potency |
| --- | --- |
| CCCc1cc(=O)n2[nH]c(C)c(-c3ccccc3)c2n1 | inactive |
| Cc1ccc(OCCn2cc(C(=O)c3ccco3)c3ccccc32)cc1C | inconclusive: 20 µM [inhibitor, partial curve, poor fit] |
| COC(=O)C1=C(C(=O)OC)SC(=C2C(=S)C(C)(C)N(C(=O)CC(C)C)c3ccccc32)S1 | inactive |
| Cc1n[nH]c(C)c1CCc1nc2c3ccccc3nc(SCC(=O)Nc3ccc(F)cc3)n2n1 | inconclusive: 35.5 µM [inhibitor, single point] |
| COc1ccc(C(c2nnnn2CCc2ccccc2)N2CCN(C3CCCC3)CC2)cc1OC (stereo not drawn) | inactive |
| COc1ccc(C(=O)Nc2ccc(C)cn2)c(OC)c1 | active: 0.651 µM |
| CCN(CC)c1ccc(/C=N/OC(C)C(=O)Nc2ccc(C)cc2)cc1 (stereo not drawn) | inconclusive: 3.16 µM [inhibitor, partial curve, poor fit] |
| CCOc1ccccc1C1CC(=O)NC2=C1C(=O)CCC2 (stereo not drawn) | inconclusive: 2.24 µM [inhibitor, partial curve, poor fit] |
| C/C(N)=C(/C#N)C(=O)CSc1nc(-c2ccccc2)c(-c2ccccc2)o1 | inconclusive: 15.8 µM [inhibitor, partial curve, poor fit] |
| O=C(NC(=S)Nc1cc([N+](=O)[O-])ccc1Cl)c1ccccc1 | inconclusive: 0.891 µM [activator, single point] |
| CN(C)c1cc[n+](CC(=O)Nc2ccccc2C(F)(F)F)cc1 | inactive |
| CCN1CCN(c2cc(C)c3cc(NC(=O)c4cccc(Cl)c4)ccc3n2)CC1 | inconclusive: 7.94 µM [inhibitor, single point] |
| Cc1cc(N2CCC(C)CC2)nc2ccc(N3C(=O)CCC3=O)cc12 | inconclusive: 6.31 µM [activator, partial curve, poor fit] |
| CC(C)C(=O)Nc1ccc(NC(=S)NC(=O)c2ccccc2F)cc1 | inconclusive: 3.55 µM [inhibitor, single point] |
| COc1cccc(-c2nc3cc(C)ccc3o2)c1 | inconclusive: 10 µM [inhibitor, partial curve, poor fit] |
| CCCC(=O)C1=C(c2ccc(C)cc2)N(C(=O)CCC)n2cnnc2S1 | inactive |
| Cc1nn(-c2ccccc2)c2c1C(c1ccc(Cl)cc1)N(c1ccccc1)C(=O)N2 (stereo not drawn) | inconclusive: 20.6 µM [inhibitor, partial curve, poor fit] |
| CCN(CC)S(=O)(=O)c1cccc(NC(=S)NC(=O)/C=C/c2ccc(S(=O)(=O)N3CCOCC3)cc2)c1 | inconclusive: 25.9 µM [inhibitor, partial curve, poor fit] |
| O=c1cc(CSc2nnc(Nc3ccccc3)s2)nc2sccn12 | inconclusive: 11.2 µM [activator, partial curve, poor fit] |
| CC1=C(C(=O)Nc2ccccc2C)C(c2ccco2)n2ncnc2N1 (stereo not drawn) | inactive |
| Cc1ccc(-c2cc(-c3ccccc3Cl)[nH]n2)c(O)c1 | inactive |
| CCCC(=O)Nc1ccc2c(c1)c1ccccc1n2CC | inconclusive: 20.6 µM [inhibitor, single point] |
| CC(/C=N/n1c(COc2ccccc2)n[nH]c1=S)=C\c1ccco1 | inconclusive: 20 µM [inhibitor, single point] |

| Structure (SMILES) | Potency |
| --- | --- |
| Cc1nn(CC(=O)Nc2ccc(Cl)cc2)c(=O)c2cc(-c3ccccc3)nn12 | inactive |
| CCN(Cc1ccccc1)S(=O)(=O)c1ccc(C(=O)N(CCCN(C)C)c2nc3cc(OC)ccc3s2)cc1 | inconclusive: 35.5 µM [inhibitor, single point] |
| COC(=O)[C@H](CC(C)C)NC(=O)Nc1cccc(Br)c1 | inconclusive: 3.26 µM [activator, partial curve, poor fit] |
| Cc1ccc(N2CCN(C(=O)C3CCC(=O)N(Cc4ccc(Cl)cc4)C3)CC2)c(C)c1 (stereo not drawn) | inconclusive: 10 µM [inhibitor, partial curve, poor fit] |
| O=C(Nc1scc(-c2ccccc2)c1C(=O)O)c1ccccc1F | inactive |
| COCOCCn1cc(CN2CCS(=O)(=O)N(Cc3ccc(-c4ccc(C)cc4)cc3)C(CC(C)C)C2=O)nn1 (stereo not drawn) | inconclusive: 12.5 µM [inhibitor, partial curve, poor fit] |
| COc1ccc(C(=O)Nc2nnc(C3=COCCO3)o2)cc1 | inconclusive: 14.1 µM [activator, partial curve, poor fit] |
| CC(C)COc1ccc(C(=O)Nc2ccccc2[N+](=O)[O-])cc1 | inconclusive: 1 µM [activator, partial curve, poor fit] |
| COc1ccc(-c2nc3nc(C)cc(Nc4cccc(C(F)(F)F)c4)n3n2)cc1 | inactive |
| Cc1ccc(-c2nc(COC(=O)c3c(C)noc3C)cs2)cc1 | inconclusive: 29.1 µM [inhibitor, single point] |
| COc1cc(C(=O)Nc2nccs2)ccc1OCc1c(C)noc1C | inactive |
| COc1ccc(-c2nnc(SCC(=O)c3ccc(C)o3)o2)cc1 | inconclusive: 35.5 µM [inhibitor, single point] |
| CC1=C(C(=O)N2CCCCC2)C(c2cccc(Cl)c2)n2c(nc3ccccc32)N1 (stereo not drawn) | inactive |
| COc1ccc(NC(=O)CN(C)C(=O)c2cccc(S(=O)(=O)N3CCN(C)CC3)c2)cc1 | inactive |
| CCC(=O)Nc1ccc2c(c1)C(=O)N(C)C2=O | inactive |
| CC(C)(C)N1C(=O)c2ccccc2NC(=O)N1Cc1ccc(Br)cc1 | inactive |
| COc1ccc(-c2cc(C)no2)cc1S(=O)(=O)NCC(C)c1ccccc1 (stereo not drawn) | inconclusive: 8.91 µM [inhibitor, single point] |
| C/C=C/c1ccc(OCC(=O)NCc2ccccc2OC)c(OC)c1 | inconclusive: 14.1 µM [inhibitor, single point] |
| O=C(CSc1nc(-c2ccccc2)c2ccccc2n1)Nc1ccc(F)cc1 | inactive |
| Cc1ccc(-n2nnnc2SCC(=O)c2cc(C)n(-c3cc(C)on3)c2C)c(C)c1 | active: 1.46 µM |
| OC(CN1CCN(c2cccc(Cl)c2)CC1)C(c1ccccc1)c1ccccc1 (stereo not drawn) | inconclusive: 3.66 µM [inhibitor, partial curve, poor fit] |
| COc1ccc(N(C)S(=O)(=O)c2cccc(C(=O)NC3CCCC(C)C3C)c2)cc1 (stereo not drawn) | inconclusive: 31.6 µM [inhibitor, single point] |
| CCN(CC)C(=O)c1oc2ccc(S(=O)(=O)N3CC(C)CC(C)C3)cc2c1C (stereo not drawn) | inconclusive: 10 µM [inhibitor, partial curve, poor fit] |

| Structure (SMILES) | Potency |
| --- | --- |
| O=C(/C=C/c1ccc2c(c1)OCO2)c1c(O)n(CCc2ccccc2)c(=O)[nH]c1=O | inconclusive: 11.2 µM [inhibitor, single point] |
| O=C(CN(c1cc(C(F)(F)F)ccc1Cl)S(=O)(=O)c1ccccc1)NCCc1ccccc1 | inactive |
| CCOc1ccc(CCNC(=O)c2ccc3c(c2)N(Cc2ccccc2)C(=O)c2ccccc2S3=O)cc1OCC (stereo not drawn) | inconclusive: 35.5 µM [inhibitor, single point] |
| O=C(CNC(=S)N(Cc1ccccc1)Cc1ccccc1F)NCCc1ccccc1 | inconclusive: 35.5 µM [inhibitor, single point] |
| CCCc1cc(=O)n2[nH]c(-c3ccc(C)cc3)cc2n1 | inconclusive: 6.31 µM [activator, single point] |
| COc1ccc(NC(=O)C2CCC(C(C)(C)C)CC2)cc1S(=O)(=O)N1CCCCC1 (stereo not drawn) | inconclusive: 22.4 µM [inhibitor, single point] |
| CC1=NN(C(N)=S)C(=O)C1N=Nc1ccc(O)cc1 (stereo not drawn) | inconclusive: 2.24 µM [inhibitor, full curve, poor fit] |
| COc1ccc(-n2c(C)c(C)c3c(NCCCO)ncnc32)cc1 | inconclusive: 5.01 µM [activator, single point] |
| O=c1c2oc3ccccc3c2n(Cc2ccccc2)c(=O)n1Cc1ccco1 | inactive |
| OCCN1CCN(c2ncnc3c2c(-c2ccccc2)cn3-c2ccc(Br)cc2)CC1 | inconclusive: 35.5 µM [inhibitor, single point] |
| O=C(CSc1nnnn1C1CC1)Nc1cccc(S(=O)(=O)N2CCCC2)c1 | inactive |
| CCCCOC(=O)Nc1ccc(N2CCCCC2)cc1 | active: 8.91 µM |
| CCCCNC(=O)C1CCN(Cc2ccc(OCc3ccccc3)cc2)CC1 | inconclusive: 35.5 µM [inhibitor, single point] |
| CC(C)(C)OC(=O)N1CCC(c2nnc(SCc3ccccc3F)o2)CC1 | inactive |
| COc1ccc(S(=O)(=O)N2CCCC2CNC(=O)C(=O)NCc2ccc(C)cc2)cc1 (stereo not drawn) | inconclusive: 10 µM [inhibitor, partial curve] |
| CC(C)CC(=O)C1CCCN(C(=O)c2ccc3oc(Cc4ccccc4)nc3c2)C1 (stereo not drawn) | inconclusive: 22.4 µM [inhibitor, single point] |
| O=C(OC(c1ccccc1)c1nccc2ccccc12)c1ccccc1 (stereo not drawn) | inconclusive: 20 µM [inhibitor, single point] |
| CCOC(=O)CSC1=C(C#N)C(c2ccc(C)s2)CC(=O)N1 (stereo not drawn) | inconclusive: 1.64 µM [inhibitor, partial curve] |
| CCn1nnc2cc(C(=O)Nc3ccc(C)cc3Br)ccc21 | inconclusive: 3.55 µM [activator, single point] |
| O=C(CSCc1ccc(Cl)cc1)Nc1ccc(S(=O)(=O)N2CCCCCC2)cc1 | inactive |
| Cc1ccc(S(=O)(=O)N(C)c2ccc(C(=O)N3CCc4ccccc4C3)cc2)cc1 | active: 11.2 µM |
| CC1CCN(S(=O)(=O)c2ccc3nc(NCc4ccc(F)cc4)ccc3c2)CC1 | inconclusive: 10 µM [inhibitor, partial curve, poor fit] |

Random excerpt: 4 entries already listed

| Structure (SMILES) | Potency |
| --- | --- |
| CCOC(=O)CSC1=C(C#N)C(c2ccc(C)s2)CC(=O)N1 (stereo not drawn) | inconclusive: 1.64 µM [inhibitor, partial curve] |
| Cc1ccc(S(=O)(=O)N(C)c2ccc(C(=O)N3CCc4ccccc4C3)cc2)cc1 | active: 11.2 µM |
| O=C(OC(c1ccccc1)c1nccc2ccccc12)c1ccccc1 (stereo not drawn) | inconclusive: 20 µM [inhibitor, single point] |
| O=C(CSc1nnnn1C1CC1)Nc1cccc(S(=O)(=O)N2CCCC2)c1 | inactive |
